PubChem BioAssay AID1259308, NCATS | 2017

Aim: 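Genes whose loss raises luciferase production in HEK293 cells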 (primary screen)
Cell system: human HEK293 embryonic kidney cells stably expressing firefly luciferase (HEK-CMV-Luc2-Hygro)
Reagent: single siRNA against human genes, 0.8 pmol siRNA per well
Duration: 72 h
Detection: 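Luciferase light (ONE-Glo) measured on one replicate plate set and viability (CellTiter-Glo) on the other, scaled to a negative control siRNA, with robust z-scores and luciferase per cell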
Scale: total luciferase, z-score and total luciferase, % of control: higher = more reporter protein produced; luciferase per cell, z-score: higher = more reporter output per viable cell; viable cells, % of control: higher = more viable cells
Rule for the call: 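An siRNA counts as active if its total luciferase robust z-score exceeds 3; genes with two or more such siRNAs out of three were retested with fresh siRNAs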
Calls: active = raised luciferase; inactive = no rise
This is a random part of about 59,000 reagents tested. About 1,510 of them (2.6%) count as active. 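Calls use total luciferase alone and ignore viability, so some active siRNAs may act by altering cell number.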 Reagents against one gene are numbered here.

target	reagent no.	total luciferase, z-score	total luciferase, % of control	luciferase per cell, z-score	viable cells, % of control	Call
LRRTM3	1	0.31	88.1	-0.22	104	inactive
LRRTM3	2	-0.899	64	-0.693	85.9	inactive
LRRTM3	3	-0.474	72.5	-0.918	103	inactive
DNAJB14	1	0.939	101	1.2	82	inactive
DNAJB14	2	0.0906	83.7	-0.518	107	inactive
DNAJB14	3	-0.601	69.9	0.242	73.3	inactive
MATCAP1	1	2.5	132	3.89	52.7	inactive
MATCAP1	2	3.15	144	2.42	85.3	active
MATCAP1	3	0.101	83.9	0.0669	92.1	inactive
SLC25A23	1	3.2	145	3.14	71.2	active
SLC25A23	2	1.96	121	1.96	80.6	inactive
SLC25A23	3	-0.589	70.2	-0.22	83.1	inactive
STXBP2	1	-0.498	72	0.441	71.6	inactive
STXBP2	2	0.305	88	0.752	80.6	inactive
STXBP2	3	-0.419	73.6	-0.00434	82.3	inactive
HNRNPAB	1	0.0149	82.2	-0.718	111	inactive
HNRNPAB	2	4.32	168	2.84	88.9	active
HNRNPAB	3	1.42	110	2.43	64.9	inactive
RAB22A	1	1.12	104	0.255	109	inactive
RAB22A	2	1.02	102	0.79	92.7	inactive
RAB22A	3	-0.33	75.3	-1.22	116	inactive
SMIM22	1	-1.51	51.8	-1.4	83.7	inactive
SMIM22	2	-1.32	55.7	-1.36	89	inactive
SMIM22	3	-2.03	41.6	-1.63	71.4	inactive
